Measured values: CN111320694A
No constants are given. Whether binding was seen depends on the method and setting. Some binding calls cover weakened binding; strength is not graded here.

By UniProt entry, the sequences of proteins in these tests, tags left out. Residues count along the entry.
UniProt P51654, residues 25-559: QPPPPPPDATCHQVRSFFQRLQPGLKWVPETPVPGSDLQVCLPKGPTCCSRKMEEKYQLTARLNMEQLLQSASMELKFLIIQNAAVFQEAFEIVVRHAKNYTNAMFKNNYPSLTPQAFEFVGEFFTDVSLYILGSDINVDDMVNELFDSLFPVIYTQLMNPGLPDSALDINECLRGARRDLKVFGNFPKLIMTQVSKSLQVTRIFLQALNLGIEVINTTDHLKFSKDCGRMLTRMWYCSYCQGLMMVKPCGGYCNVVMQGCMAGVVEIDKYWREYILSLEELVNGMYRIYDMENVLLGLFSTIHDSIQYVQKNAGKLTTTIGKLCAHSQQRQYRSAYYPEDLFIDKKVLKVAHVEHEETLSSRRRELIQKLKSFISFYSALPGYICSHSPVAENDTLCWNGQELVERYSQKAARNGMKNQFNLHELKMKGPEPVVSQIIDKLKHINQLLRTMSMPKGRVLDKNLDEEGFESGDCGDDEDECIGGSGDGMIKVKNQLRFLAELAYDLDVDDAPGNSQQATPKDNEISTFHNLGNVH

Legend:
[1] = molecular target: GPC3蛋白 (Glypican 3 protein, recombinant) (UniProt P51654); experiment: ELISA on coated GPC3 protein (1μg/mL), detection by HRP anti-HA, after heat treatment of GN2
[2] = molecular target: GPC3蛋白 (Glypican 3 protein, recombinant) (UniProt P51654); experiment: sandwich phage ELISA, GPC3 captured by alpaca anti-GPC3 IgG; clone that gave GN2

binding [1]: binds
binding [2]: binds
B1: 纳米抗体GN2 (anti-GPC3 nanobody GN2) (VHH, not shown: small tags and cut ends)
VHH: QVQLVESGGGLVQPGGSLRLSCAASGFTLDAYAIGWFRQAPGKEREGVSYITSGTGTTLYADSVKGRFTISRDNAKNTVYLQMNSLKPEDTAVYFCTTLKRTTAGGWPIPGRIGGQGTQVTVSS
